{"source": "paper PMC11530130", "about": "“Peripherally restricted PICK1 inhibitor mPD5 ameliorates pain behaviors in murine inflammatory and neuropathic pain models” (JCI Insight, 2024)", "key": {"[1]": {"system": "mice, CFA model of inflammatory pain", "test": "CFA model of inflammatory pain, von Frey, s.c. administration", "format": "in vivo, mouse", "conditions": "CFA dose range", "experimental": "Unless otherwise specified, wild type C57BL/6NRj mice (male and female, aged eight-weeks at the beginning of experiment) were used (Janvier, France). Animals were allowed at least seven days of habituation to the animal facility before initiation of experiment. Mice were group-housed in a temperature-controlled room, maintained on a 12/12hour light/dark cycle (lights on at 6 A.M) with free access to standard rodent chow (Altromin 1342 (Brogaarden, […]\nDrug administration and dosing for animal experiments.\nAll compounds were diluted in PBS or saline (depending on control) and administered through different routes i.t. (7 μL/mouse)), i.p. (10 μL/g) or s.c. (10 μL/g)) as indicated. Doses of mPD5 were based on previous studies with TPD5 (6) with a subcutaneous dose-range included in the CFA studies further guiding dose selection for SNI, STZ and CIBP studies. Pregabalin dose was chosen based on previous experience from Phenotype Expertise (Marseilles, France). In the CIBP model, a dose of […] morphine was chosen to avoid hyperactivity, though known to provide only partial pain relief in this model. In remaining experiments, 5 mg/kg morphine was chosen, known to provide full pain relief, except for the conditioned place preference experiment, where 10 mg/kg was used instead in accordance with literature. […]\nµL of IS1 (internal standard in MeOH (Labetalol & tolbutamide & Verapamil & dexamethasone & glyburide & Celecoxib 100 ng/mL for each)) and the mixture was vortexed for 10 min at 800 rpm and centrifuged for 15 min at 3220 × g at 4 ℃. An aliquot of 65 µL supernatant was transferred to a clean 96-well plate and centrifuged for 5 min at 3220 × g at 4 ℃, then the supernatant was directly injected for LC-MS/MS analysis. Plasma half-lives were determined from three points in the elimination phase. In a separate experiment, biodistribution was assessed (plasma, CSF, spinal cord, whole brain) at two hours after single dose of 10 µmol/kg or one hour after last injection in the repeated administration paradigm (10 µmol/kg followed by four s.c. administrations of 2 µmol/kg with one hour between). At these times, plasma levels were similar between the two paradigms. Plasma, CSF, and tissue samples (kept at 4 ℃) were processed and analysed as described above.\nConcentration 10 µmol/kg: Wild type mice were habituated to the experimental room for a minimum of 60 min before initiation of the experiment. Female and male mice were run on separate days. Mice were injected s.c. with 10 μmol/kg mPD5 or sterile PBS directly before being placed in open field boxes (40 cm x 40 cm x 80 cm) for 2.5 hours with up to four mice in boxes at any one time. A video camera placed above the open field recorded the animals’ behaviour and Ethovision XT 13 (Noldus) was used to track the distance travelled by the […]\nConcentration 30 + 50 µmol/kg: Animals were habituated to the experimental room for a minimum of 60 min before initiation of the experiment. At initiation of experiment, the mice (all male) were injected subcutaneously (s.c.) with mPD5 (30 or 50 μmol/kg, pH adjusted to approximately 7 with 5 M NaOH) or 0.9 % saline (B.Braun, Germany) and left in their home cage for 60 min. After exactly one hour, the mice were placed in an open field (40 cm x 40 cm x 80 cm) for 60 min. A video camera placed above the open field recorded the animals’ […]\nanimal. The experiment was run in cohort with Figure 2B+C of (9)).\nInduction of inflammatory pain (CFA model).\nInjury was induced on the right hind paw, whereas the contralateral left hind paw was used as internal control of the C57BL/6J male and female mice (Janvier, France). The inflammatory pain was induced by injection of 50 μL undiluted Complete Freund’s Adjuvant (CFA) (F5881, Sigma) unilaterally into the intraplantar surface of the right hind paw, whereas control mice were injected with the same amount of 0.9 % saline (B. Braun, Germany). All intraplantar injections were performed with an insulin needle (0.3 mL BD Micro-Fine) while the animal […]"}, "[2]": {"system": "mice, spared nerve injury (SNI) model", "test": "SNI model, von Frey, repeated s.c. administration on 2 consecutive days", "format": "in vivo, mouse", "parameters": "von Frey threshold, Fig 7A, individual mice: unit not given here", "text": "Repeated and sustained administration of mPD5 in the SNI model.\nFor the experiment with repeated administration of mPD5 (Figure 7A), male C57BL/6J (Janvier, France) mice underwent surgery leading to partial nerve injury, by cutting the peroneal and tibial nerves, producing hypersensitivity of the remaining sural nerve (SNI) as described in the “Induction of neuropathic pain (SNI model).”-section. On day 21 after surgery, hyperalgesia was confirmed by using von Frey filaments to induce mechanically evoked hypersensitivity and measure paw withdrawal threshold of the animals as described in the “Mechanically-evoked pain (von Frey).”-section. On the same day, mice were injected s.c. with 2, 10, or 50 μmol/kg mPD5 (10 μL/g) and evoked pain was tested again with the use of von Frey filaments at 1 and 5 hours after injection. 24 hours after the first injection, mice were injected s.c. with 2, 10, or 50 μmol/kg mPD5 (10 μL/g) again and evoked pain was tested with the use of von Frey filaments at 1, 5, and 24 hours after the second injection. […]"}}, "note": "“And” between values parts separate entries of the source, which are not always exact repeats. Identical values can stand only once. This continues a long series; more values of the same kind are listed elsewhere.", "data": [{"smiles": "CCCCCCCCCCCCCC(=O)N(CCOCCOCCC(=O)N[C@@H](Cc1c[nH]cn1)C(=O)N[C@@H](Cc1c[nH]c2ccccc12)C(=O)N[C@@H](CC(C)C)C(=O)N[C@@H](CCCCN)C(=O)N[C@H](C(=O)O)C(C)C)CCOCCOCCC(=O)N[C@@H](Cc1c[nH]cn1)C(=O)N[C@@H](Cc1c[nH]c2ccccc12)C(=O)N[C@@H](CC(C)C)C(=O)N[C@@H](CCCCN)C(=O)N[C@H](C(=O)O)C(C)C", "note": "[mPD5, myristoyl-NPEG4-(HWLKV)2]", "values": [{"measurement": "paw withdrawal threshold (von Frey), individual mice", "setting": "[1]; s.c. 2 μmol/kg, contralateral paw, 5 hrs post injection, listed as myr", "result": "1.4 (3×) and 1 (2×)"}, {"measurement": "paw withdrawal threshold (von Frey), individual mice", "setting": "[1]; s.c. 2 μmol/kg, contralateral paw, 24 hrs post injection", "result": 1.4}, {"measurement": "paw withdrawal threshold (von Frey), individual mice", "setting": "[1]; s.c. 2 μmol/kg, ipsilateral paw, 24 hrs post injection, listed as myr", "result": "0.16 (3×) and 0.6 and 0.4"}, {"measurement": "paw withdrawal threshold (von Frey), individual mice", "setting": "[1]; s.c. 10 μmol/kg, contralateral paw, 24 hrs post injection, listed as myr", "result": "1.4 (3×) and 1 (2×) and 2"}, {"measurement": "paw withdrawal threshold (von Frey), individual mice", "setting": "[1]; s.c. 10 μmol/kg, ipsilateral paw, 24 hrs post injection, listed as myr", "result": "0.16 (5×) and 0.4"}, {"measurement": "paw withdrawal threshold (von Frey), individual mice", "setting": "[1]; s.c. 50 μmol/kg, contralateral paw, 24 hrs post injection, listed as myr", "result": "1.4 (3×) and 2 and 1"}, {"measurement": "paw withdrawal threshold (von Frey), individual mice", "setting": "[1]; s.c. 50 μmol/kg, ipsilateral paw, 5 hrs post injection, listed as myr", "result": 0.4}, {"measurement": "paw withdrawal threshold (von Frey), individual mice", "setting": "[1]; s.c. 50 μmol/kg, ipsilateral paw, 24 hrs post injection, listed as myr", "result": "0.07 and 0.16 and 0.4 (3×)"}, {"measurement": "von Frey threshold, contralateral paw, Fig 7A, individual mice", "setting": "[2]; A_contra, hr 5 day2", "result": 2}, {"measurement": "von Frey threshold, contralateral paw, Fig 7A, individual mice", "setting": "[2]; A_contra, hr 24 day 3", "result": "1.4 (3×) and 1 (4×) and 2"}, {"measurement": "von Frey threshold, contralateral paw, Fig 7A, individual mice", "setting": "[2]; B_contra, hr 5 day2", "result": "2 (3×) and 1 (4×) and 1.4"}, {"measurement": "von Frey threshold, contralateral paw, Fig 7A, individual mice", "setting": "[2]; B_contra, hr 24 day 3", "result": "1.4 (3×) and 1 (4×) and 2"}, {"measurement": "von Frey threshold, contralateral paw, Fig 7A, individual mice", "setting": "[2]; C_comtra, hr 5 day2", "result": "1.4 (4×) and 1 (4×)"}, {"measurement": "von Frey threshold, contralateral paw, Fig 7A, individual mice", "setting": "[2]; C_comtra, hr 24 day 3", "result": "2 and 1 (5×) and 1.4 (2×)"}, {"measurement": "von Frey threshold, Fig 7A, individual mice", "setting": "[2]; group 2, hr 5 day2", "result": "0.6 (2×) and 0.4"}, {"measurement": "von Frey threshold, Fig 7A, individual mice", "setting": "[2]; group 2, hr 24 day 3", "result": "0.07 (3×) and 0.16 (4×) and 0.4"}, {"measurement": "von Frey threshold, Fig 7A, individual mice", "setting": "[2]; group 10, hr 5 day2", "result": "0.6 (2×) and 0.4 (3×) and 0.16"}, {"measurement": "von Frey threshold, Fig 7A, individual mice", "setting": "[2]; group 10, hr 24 day 3", "result": "0.16 (2×) and 0.4 (3×) and 0.07 (3×)"}, {"measurement": "von Frey threshold, Fig 7A, individual mice", "setting": "[2]; group 50, hr 5 day2", "result": "0.4 (5×) and 0.6 (2×) and 0.07"}, {"measurement": "von Frey threshold, Fig 7A, individual mice", "setting": "[2]; group 50, hr 24 day 3", "result": "0.4 (2×) and 0.07 (4×) and 0.16 (2×)"}]}]}
